# Test results from the supplement of paper PMC6411743.
# Chains of the proteins cited; added tags and fusions are not shown. Lines headed by an entry give the natural chain unless they say otherwise; changes in a name come on top.
# UniProt O00330, whole entry: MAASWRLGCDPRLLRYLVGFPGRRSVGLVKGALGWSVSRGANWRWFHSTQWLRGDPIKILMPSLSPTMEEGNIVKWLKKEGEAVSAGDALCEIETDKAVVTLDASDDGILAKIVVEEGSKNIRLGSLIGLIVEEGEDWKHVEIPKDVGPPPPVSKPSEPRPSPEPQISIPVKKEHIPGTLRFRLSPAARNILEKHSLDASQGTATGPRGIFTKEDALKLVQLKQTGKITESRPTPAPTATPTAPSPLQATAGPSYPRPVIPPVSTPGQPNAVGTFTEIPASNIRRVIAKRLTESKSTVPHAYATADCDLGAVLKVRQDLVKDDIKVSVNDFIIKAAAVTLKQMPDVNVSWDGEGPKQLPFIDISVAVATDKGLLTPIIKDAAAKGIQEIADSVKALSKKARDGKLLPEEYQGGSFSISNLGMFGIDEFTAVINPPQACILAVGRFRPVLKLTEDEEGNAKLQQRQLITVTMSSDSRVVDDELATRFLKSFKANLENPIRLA
# UniProt O00429, whole entry: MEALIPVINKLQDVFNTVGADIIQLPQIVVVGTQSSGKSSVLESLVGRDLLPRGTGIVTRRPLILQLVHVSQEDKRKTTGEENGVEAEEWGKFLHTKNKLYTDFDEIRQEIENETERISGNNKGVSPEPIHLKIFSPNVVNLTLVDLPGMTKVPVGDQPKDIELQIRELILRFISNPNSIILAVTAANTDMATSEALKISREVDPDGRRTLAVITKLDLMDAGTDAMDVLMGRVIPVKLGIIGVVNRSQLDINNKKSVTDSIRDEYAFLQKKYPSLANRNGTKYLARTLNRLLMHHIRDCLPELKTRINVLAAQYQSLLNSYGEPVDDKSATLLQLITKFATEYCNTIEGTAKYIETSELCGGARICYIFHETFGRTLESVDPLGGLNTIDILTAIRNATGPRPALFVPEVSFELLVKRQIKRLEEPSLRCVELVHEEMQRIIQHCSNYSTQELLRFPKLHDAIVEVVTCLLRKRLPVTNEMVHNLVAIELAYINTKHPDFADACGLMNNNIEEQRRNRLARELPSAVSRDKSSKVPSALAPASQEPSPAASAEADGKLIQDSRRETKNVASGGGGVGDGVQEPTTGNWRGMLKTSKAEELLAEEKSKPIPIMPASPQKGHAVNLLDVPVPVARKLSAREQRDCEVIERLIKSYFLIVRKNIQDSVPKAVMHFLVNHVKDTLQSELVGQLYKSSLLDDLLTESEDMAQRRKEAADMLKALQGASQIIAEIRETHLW
# UniProt O60506: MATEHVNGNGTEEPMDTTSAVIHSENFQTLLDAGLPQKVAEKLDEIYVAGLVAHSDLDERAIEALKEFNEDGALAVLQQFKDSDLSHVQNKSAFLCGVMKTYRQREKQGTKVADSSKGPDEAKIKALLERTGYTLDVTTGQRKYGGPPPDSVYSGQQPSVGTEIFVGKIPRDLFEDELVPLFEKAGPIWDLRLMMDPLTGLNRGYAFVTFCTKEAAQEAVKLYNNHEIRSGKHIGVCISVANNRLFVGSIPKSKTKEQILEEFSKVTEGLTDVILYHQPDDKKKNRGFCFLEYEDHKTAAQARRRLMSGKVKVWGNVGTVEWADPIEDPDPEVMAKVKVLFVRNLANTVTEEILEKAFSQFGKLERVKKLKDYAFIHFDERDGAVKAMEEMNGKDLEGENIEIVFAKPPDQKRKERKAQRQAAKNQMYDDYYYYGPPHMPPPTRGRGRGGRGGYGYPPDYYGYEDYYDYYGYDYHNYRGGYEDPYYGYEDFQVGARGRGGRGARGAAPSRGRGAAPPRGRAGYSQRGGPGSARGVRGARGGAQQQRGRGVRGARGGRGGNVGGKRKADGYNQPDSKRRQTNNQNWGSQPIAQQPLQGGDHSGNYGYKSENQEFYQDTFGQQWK
# UniProt O43815: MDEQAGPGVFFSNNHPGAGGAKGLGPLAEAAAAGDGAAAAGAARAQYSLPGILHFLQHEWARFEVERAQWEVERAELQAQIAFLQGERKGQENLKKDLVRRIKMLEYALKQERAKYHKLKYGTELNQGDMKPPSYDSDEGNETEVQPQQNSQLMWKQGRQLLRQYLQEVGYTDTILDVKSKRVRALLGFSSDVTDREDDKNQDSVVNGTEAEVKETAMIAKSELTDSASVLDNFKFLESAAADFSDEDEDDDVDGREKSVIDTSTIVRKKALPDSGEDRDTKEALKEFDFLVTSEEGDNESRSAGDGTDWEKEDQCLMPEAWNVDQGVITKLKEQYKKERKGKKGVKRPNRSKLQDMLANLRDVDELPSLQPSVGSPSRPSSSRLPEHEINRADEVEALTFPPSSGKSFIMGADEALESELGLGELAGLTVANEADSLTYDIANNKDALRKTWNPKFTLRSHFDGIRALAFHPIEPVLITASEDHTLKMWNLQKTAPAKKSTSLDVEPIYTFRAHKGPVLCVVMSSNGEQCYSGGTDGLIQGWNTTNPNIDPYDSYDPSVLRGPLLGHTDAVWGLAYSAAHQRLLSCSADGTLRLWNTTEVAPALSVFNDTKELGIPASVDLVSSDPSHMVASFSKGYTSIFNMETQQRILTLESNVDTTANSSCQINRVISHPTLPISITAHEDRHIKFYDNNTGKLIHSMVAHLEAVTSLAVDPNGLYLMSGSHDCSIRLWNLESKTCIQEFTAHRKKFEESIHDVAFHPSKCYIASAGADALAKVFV
# UniProt O43678, whole entry: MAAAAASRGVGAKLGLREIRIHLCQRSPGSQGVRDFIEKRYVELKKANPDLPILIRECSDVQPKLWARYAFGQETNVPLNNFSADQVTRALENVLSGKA
# UniProt O00418: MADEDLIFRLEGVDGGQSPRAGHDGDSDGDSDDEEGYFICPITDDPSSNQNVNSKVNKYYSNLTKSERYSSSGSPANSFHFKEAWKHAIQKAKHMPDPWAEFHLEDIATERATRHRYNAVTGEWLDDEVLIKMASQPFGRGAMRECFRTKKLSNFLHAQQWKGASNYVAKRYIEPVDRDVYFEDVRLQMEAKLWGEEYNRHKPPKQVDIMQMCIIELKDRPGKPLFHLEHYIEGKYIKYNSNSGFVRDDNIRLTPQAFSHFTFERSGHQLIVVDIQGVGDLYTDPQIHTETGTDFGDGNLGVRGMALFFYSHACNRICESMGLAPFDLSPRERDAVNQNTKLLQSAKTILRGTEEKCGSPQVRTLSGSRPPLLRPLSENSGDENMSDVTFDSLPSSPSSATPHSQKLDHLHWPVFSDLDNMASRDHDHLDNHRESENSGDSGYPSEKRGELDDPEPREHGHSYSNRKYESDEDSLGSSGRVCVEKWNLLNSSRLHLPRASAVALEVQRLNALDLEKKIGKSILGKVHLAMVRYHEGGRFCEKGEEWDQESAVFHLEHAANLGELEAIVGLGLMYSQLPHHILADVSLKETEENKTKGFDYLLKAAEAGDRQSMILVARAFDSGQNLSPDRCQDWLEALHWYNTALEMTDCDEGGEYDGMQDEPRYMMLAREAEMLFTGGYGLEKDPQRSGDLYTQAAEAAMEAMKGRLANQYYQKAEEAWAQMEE
# UniProt O43399: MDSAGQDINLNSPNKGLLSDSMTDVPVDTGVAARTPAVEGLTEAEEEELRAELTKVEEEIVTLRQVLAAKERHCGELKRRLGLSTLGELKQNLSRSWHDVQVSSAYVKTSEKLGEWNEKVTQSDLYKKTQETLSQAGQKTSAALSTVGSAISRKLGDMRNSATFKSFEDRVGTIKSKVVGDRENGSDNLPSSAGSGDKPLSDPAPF
# UniProt O14578, whole entry: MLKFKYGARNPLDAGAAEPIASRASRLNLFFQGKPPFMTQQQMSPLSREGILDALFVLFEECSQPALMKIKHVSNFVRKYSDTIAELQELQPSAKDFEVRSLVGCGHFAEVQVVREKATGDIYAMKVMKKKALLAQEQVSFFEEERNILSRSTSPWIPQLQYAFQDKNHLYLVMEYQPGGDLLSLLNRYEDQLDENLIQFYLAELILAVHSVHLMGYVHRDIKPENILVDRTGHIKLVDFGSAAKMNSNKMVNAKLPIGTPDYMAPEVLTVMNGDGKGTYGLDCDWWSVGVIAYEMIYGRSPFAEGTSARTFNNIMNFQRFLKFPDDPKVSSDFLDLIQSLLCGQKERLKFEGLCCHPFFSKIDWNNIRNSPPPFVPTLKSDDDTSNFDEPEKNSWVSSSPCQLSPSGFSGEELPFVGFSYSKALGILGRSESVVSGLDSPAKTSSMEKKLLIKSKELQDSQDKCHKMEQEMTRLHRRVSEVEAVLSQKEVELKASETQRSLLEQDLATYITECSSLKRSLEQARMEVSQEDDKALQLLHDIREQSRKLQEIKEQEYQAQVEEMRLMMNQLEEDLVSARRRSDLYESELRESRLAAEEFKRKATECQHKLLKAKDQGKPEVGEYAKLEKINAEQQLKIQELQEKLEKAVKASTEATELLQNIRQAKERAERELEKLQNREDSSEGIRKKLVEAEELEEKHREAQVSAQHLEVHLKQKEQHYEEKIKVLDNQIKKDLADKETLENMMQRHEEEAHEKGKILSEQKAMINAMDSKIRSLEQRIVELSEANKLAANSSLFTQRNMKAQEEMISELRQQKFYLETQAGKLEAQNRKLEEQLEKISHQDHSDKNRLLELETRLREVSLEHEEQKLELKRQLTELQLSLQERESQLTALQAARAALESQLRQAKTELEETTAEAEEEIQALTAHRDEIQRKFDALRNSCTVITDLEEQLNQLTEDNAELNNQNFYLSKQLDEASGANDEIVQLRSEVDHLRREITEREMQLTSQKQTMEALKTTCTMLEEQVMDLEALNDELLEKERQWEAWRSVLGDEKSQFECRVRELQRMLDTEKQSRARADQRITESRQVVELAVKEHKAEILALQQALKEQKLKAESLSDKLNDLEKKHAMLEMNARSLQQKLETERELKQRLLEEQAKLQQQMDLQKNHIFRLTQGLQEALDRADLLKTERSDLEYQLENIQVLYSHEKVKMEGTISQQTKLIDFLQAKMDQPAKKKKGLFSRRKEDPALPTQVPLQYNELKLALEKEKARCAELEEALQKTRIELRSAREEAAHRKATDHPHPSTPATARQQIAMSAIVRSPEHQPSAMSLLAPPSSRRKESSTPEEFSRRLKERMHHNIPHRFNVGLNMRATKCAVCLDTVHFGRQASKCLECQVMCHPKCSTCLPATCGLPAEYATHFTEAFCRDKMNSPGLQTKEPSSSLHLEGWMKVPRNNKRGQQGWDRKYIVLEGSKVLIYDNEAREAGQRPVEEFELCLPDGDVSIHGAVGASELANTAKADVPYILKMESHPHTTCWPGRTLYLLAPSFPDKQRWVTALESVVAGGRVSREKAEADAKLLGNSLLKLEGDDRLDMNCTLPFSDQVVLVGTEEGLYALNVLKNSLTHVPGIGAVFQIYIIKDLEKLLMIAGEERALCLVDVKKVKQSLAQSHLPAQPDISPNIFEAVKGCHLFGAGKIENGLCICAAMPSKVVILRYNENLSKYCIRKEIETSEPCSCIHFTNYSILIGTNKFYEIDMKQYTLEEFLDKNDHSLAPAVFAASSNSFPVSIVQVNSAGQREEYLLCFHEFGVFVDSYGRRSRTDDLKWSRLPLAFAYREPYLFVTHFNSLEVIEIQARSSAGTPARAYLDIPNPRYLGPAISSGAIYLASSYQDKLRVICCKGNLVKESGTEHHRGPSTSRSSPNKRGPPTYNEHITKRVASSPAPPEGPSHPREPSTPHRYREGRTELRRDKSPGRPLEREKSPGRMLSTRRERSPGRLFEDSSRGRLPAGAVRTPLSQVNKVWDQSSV
# UniProt O15126: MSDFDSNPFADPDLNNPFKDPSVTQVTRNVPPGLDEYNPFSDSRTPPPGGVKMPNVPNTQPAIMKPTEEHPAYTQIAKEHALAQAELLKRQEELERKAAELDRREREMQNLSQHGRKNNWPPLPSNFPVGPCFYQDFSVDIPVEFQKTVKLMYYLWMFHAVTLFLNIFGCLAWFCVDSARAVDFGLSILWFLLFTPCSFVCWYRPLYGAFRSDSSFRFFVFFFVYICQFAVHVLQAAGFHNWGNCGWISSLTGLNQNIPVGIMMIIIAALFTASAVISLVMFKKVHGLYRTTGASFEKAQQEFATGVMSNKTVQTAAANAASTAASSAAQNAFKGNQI
# UniProt O14530: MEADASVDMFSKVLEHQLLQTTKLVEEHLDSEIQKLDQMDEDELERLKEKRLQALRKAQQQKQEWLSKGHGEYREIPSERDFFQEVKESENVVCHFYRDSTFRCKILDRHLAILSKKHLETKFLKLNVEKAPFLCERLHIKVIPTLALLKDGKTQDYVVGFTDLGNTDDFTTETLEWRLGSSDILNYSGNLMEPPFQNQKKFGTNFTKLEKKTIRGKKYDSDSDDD
# UniProt O43765: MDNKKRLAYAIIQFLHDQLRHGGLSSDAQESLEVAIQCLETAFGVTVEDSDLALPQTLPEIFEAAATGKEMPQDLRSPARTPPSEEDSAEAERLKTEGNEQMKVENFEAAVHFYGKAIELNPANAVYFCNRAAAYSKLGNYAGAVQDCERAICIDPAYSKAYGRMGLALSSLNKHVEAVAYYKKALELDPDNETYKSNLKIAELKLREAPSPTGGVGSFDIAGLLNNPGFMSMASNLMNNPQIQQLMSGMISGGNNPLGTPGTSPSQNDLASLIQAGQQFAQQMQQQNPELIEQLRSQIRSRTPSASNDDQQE
# ± gives the standard deviation of the averaged measurements. Some of the results follow.
# Compound: Nc1nc2c(ncn2[C@@H]2O[C@H](COP(=O)(O)OP(=O)(O)OP(=O)(O)O)[C@@H](O)[C@H]2O)c(=O)[nH]1 [guanosine triphosphate]
# Experiment: NP40-soluble protein abundance relative to vehicle (solubility fold change) (ratio); higher = more soluble protein in presence of GTP
# Method in brief: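 Jurkat crude lysate (Dounce-homogenised) was treated with eight concentrations from 0.1 to 10 mM for 10 min at room temperature, then 3 min at 37 °C. It was solubilised with 0.8% NP40 and benzonase (60 min, 4 °C) and ultracentrifuged, and the supernatant was TMT-labelled for LC-MS/MS. Intensities were vsn-normalised, and the value is the fold change against the NP40-processed vehicle per replicate, from three independent experiments.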
Target,NP40-soluble protein abundance (concentration: 0.1mM),NP40-soluble protein abundance (concentration: 0.5mM),NP40-soluble protein abundance (concentration: 1mM),NP40-soluble protein abundance (concentration: 2mM),NP40-soluble protein abundance (concentration: 4mM),NP40-soluble protein abundance (concentration: 6mM),NP40-soluble protein abundance (concentration: 8mM),NP40-soluble protein abundance (concentration: 10mM)
UniProt O43172-2|O43172,1.09 ± 0.067,1.15 ± 0.086,1.11 ± 0.059,1.13 ± 0.071,1.15 ± 0.1,1.17 ± 0.11,1.21 ± 0.12,1.18 ± 0.08
UniProt O00330 and related entries,1.1 ± 0.079,1.2 ± 0.15,1.34 ± 0.29,1.47 ± 0.34,1.54 ± 0.46,1.58 ± 0.46,1.63 ± 0.54,1.49 ± 0.51
GTPBP1 (UniProt O00178),1 ± 0.052,1.01 ± 0.041,0.963 ± 0.052,0.963 ± 0.039,0.966 ± 0.051,0.979 ± 0.036,1 ± 0.079,0.976 ± 0.045
UniProt O00429 and related entries,1.03 ± 0.021,0.989 ± 0.02,0.963 ± 0.023,0.951 ± 0.027,0.934 ± 0.058,0.928 ± 0.029,0.912 ± 0.039,0.904 ± 0.054
NDUFS5 (UniProt O43920),0.989 ± 0.13,0.976 ± 0.11,1.16 ± 0.18,1.22 ± 0.15,1.18 ± 0.19,1.17 ± 0.15,1.19 ± 0.21,1.19 ± 0.19
UniProt O14733 and related entries,1 ± 0.011,1.05 ± 0.08,1.01 ± 0.054,1.01 ± 0.03,0.993 ± 0.058,0.955 ± 0.035,0.972 ± 0.041,0.944 ± 0.037
MAST3 (UniProt O60307),1.241 ± 0.0039,1.43 ± 0.14,1.46 ± 0.03,1.522 ± 0.011,1.4506 ± 0.0012,1.35 ± 0.096,1.46 ± 0.1,1.49 ± 0.073
SH3BP5 (UniProt O60239),0.948 ± 0.086,1.02 ± 0.05,0.93 ± 0.043,0.951 ± 0.035,0.938 ± 0.064,1.02 ± 0.049,0.927 ± 0.057,0.985 ± 0.049
UniProt O60506 and related entries,0.955 ± 0.027,1.01 ± 0.027,0.971 ± 0.03,0.999 ± 0.05,1 ± 0.082,1.02 ± 0.066,1.03 ± 0.091,1.01 ± 0.067
SLC9A3R1 (UniProt O14745),0.886 ± 0.081,0.901 ± 0.099,0.927 ± 0.096,0.877 ± 0.11,0.868 ± 0.11,0.888 ± 0.12,0.885 ± 0.088,0.889 ± 0.11
SMARCA5 (UniProt O60264),1.06 ± 0.0097,1.07 ± 0.046,1.06 ± 0.039,1.07 ± 0.058,1.14 ± 0.066,1.12 ± 0.1,1.18 ± 0.099,1.17 ± 0.084
M0QXM4 and related entries (UniProt Q15758),0.949 ± 0.042,0.89 ± 0.09,0.933 ± 0.13,0.907 ± 0.1,0.913 ± 0.11,0.928 ± 0.096,0.919 ± 0.085,0.945 ± 0.12
O60344 and related entries (UniProt P0DPD6),1.02 ± 0.12,0.996 ± 0.13,0.916 ± 0.08,0.988 ± 0.14,0.959 ± 0.1,0.884 ± 0.12,0.883 ± 0.091,0.871 ± 0.14
UniProt O14617 and related entries,1.03 ± 0.04,1.02 ± 0.053,0.993 ± 0.041,0.986 ± 0.046,0.975 ± 0.039,0.993 ± 0.035,1.03 ± 0.037,0.9725 ± 0.0091
MRPS14 (UniProt O60783),1.07 ± 0.1,1.06 ± 0.13,1.28 ± 0.19,1.4 ± 0.33,1.48 ± 0.38,1.43 ± 0.38,1.38 ± 0.32,1.48 ± 0.41
STRN (UniProt O43815),1 ± 0.014,1.05 ± 0.009,1.08 ± 0.065,1.12 ± 0.016,1.15 ± 0.062,1.14 ± 0.1,1.18 ± 0.09,1.17 ± 0.12

Target,NP40-soluble protein abundance (concentration: 0.1mM),NP40-soluble protein abundance (concentration: 0.5mM),NP40-soluble protein abundance (concentration: 1mM),NP40-soluble protein abundance (concentration: 2mM),NP40-soluble protein abundance (concentration: 4mM),NP40-soluble protein abundance (concentration: 6mM),NP40-soluble protein abundance (concentration: 8mM),NP40-soluble protein abundance (concentration: 10mM)
NDUFA2 (UniProt O43678),0.985 ± 0.13,1.02 ± 0.035,1.26 ± 0.14,1.18 ± 0.072,1.24 ± 0.093,1.266 ± 0.0086,1.25 ± 0.05,1.48 ± 0.057
XPOT (UniProt O43592),1 ± 0.043,1.01 ± 0.071,0.93 ± 0.054,0.938 ± 0.1,0.946 ± 0.053,0.94 ± 0.069,0.875 ± 0.039,0.871 ± 0.045
M0R2Z9 and related entries (UniProt Q8IX01),1.01 ± 0.021,1.05 ± 0.03,1.12 ± 0.073,1.16 ± 0.074,1.21 ± 0.13,1.18 ± 0.098,1.25 ± 0.12,1.25 ± 0.13
UniProt O60664,0.884 ± 0.051,0.851 ± 0.065,0.892 ± 0.079,0.848 ± 0.11,0.828 ± 0.1,0.851 ± 0.11,0.835 ± 0.12,0.874 ± 0.087
EEF2K (UniProt O00418),0.988 ± 0.074,1.01 ± 0.058,0.944 ± 0.02,0.954 ± 0.044,0.913 ± 0.028,0.951 ± 0.052,0.949 ± 0.068,0.941 ± 0.039
M0QYS1 and related entries (UniProt P40429),0.978 ± 0.097,1.01 ± 0.094,1.01 ± 0.15,0.979 ± 0.22,0.894 ± 0.26,0.82 ± 0.22,0.69 ± 0.17,0.839 ± 0.22
UniProt O43399 and related entries,0.814 ± 0.11,0.76 ± 0.039,1 ± 0.15,0.946 ± 0.028,0.91 ± 0.03,0.916 ± 0.033,0.875 ± 0.16,1.08 ± 0.15
UniProt O60825 and related entries,1.06 ± 0.031,1.05 ± 0.033,1 ± 0.039,0.981 ± 0.033,0.977 ± 0.053,0.962 ± 0.069,0.938 ± 0.027,0.917 ± 0.054
UniProt O14578-4,0.977 ± 0.037,1.002 ± 0.01,1.01 ± 0.011,0.973 ± 0.024,0.975 ± 0.031,0.9786 ± 0.006,0.993 ± 0.052,0.991 ± 0.059
RRP9 (UniProt O43818),0.993 ± 0.094,1.05 ± 0.11,0.977 ± 0.11,1.03 ± 0.092,1 ± 0.12,1.1 ± 0.09,1.07 ± 0.12,1.13 ± 0.12
SCAMP1 (UniProt O15126),0.983 ± 0.11,0.937 ± 0.1,0.981 ± 0.079,0.947 ± 0.13,0.954 ± 0.15,0.919 ± 0.11,0.977 ± 0.083,0.973 ± 0.1
TXNDC9 (UniProt O14530),1.05 ± 0.082,1.13 ± 0.11,1.11 ± 0.13,1.15 ± 0.22,1.13 ± 0.21,1.15 ± 0.23,1.1 ± 0.18,1.1 ± 0.2
SGTA (UniProt O43765),0.825 ± 0.07,0.80038 ± 0.00078,1.02 ± 0.14,0.972 ± 0.027,0.948 ± 0.048,0.938 ± 0.035,0.889 ± 0.1,1.02 ± 0.11
UniProt O60711 and related entries,1.04 ± 0.084,1.06 ± 0.071,0.994 ± 0.073,0.997 ± 0.12,0.98 ± 0.086,0.969 ± 0.11,0.969 ± 0.088,0.974 ± 0.12
IPO8 (UniProt O15397),1.04 ± 0.022,0.983 ± 0.051,0.972 ± 0.032,0.965 ± 0.054,1.02 ± 0.034,0.989 ± 0.039,0.997 ± 0.029,1.007 ± 0.0078
ARPC3 (UniProt O15145),1.01 ± 0.12,0.986 ± 0.073,1.09 ± 0.18,1.08 ± 0.15,1.05 ± 0.12,1.06 ± 0.089,1.05 ± 0.091,1.11 ± 0.23

# Shown tab-delimited: part of the list above.
Target	NP40-soluble protein abundance (concentration: 0.1mM)	NP40-soluble protein abundance (concentration: 0.5mM)	NP40-soluble protein abundance (concentration: 1mM)	NP40-soluble protein abundance (concentration: 2mM)	NP40-soluble protein abundance (concentration: 4mM)	NP40-soluble protein abundance (concentration: 6mM)	NP40-soluble protein abundance (concentration: 8mM)	NP40-soluble protein abundance (concentration: 10mM)
NDUFA2 (UniProt O43678)	0.985 ± 0.13	1.02 ± 0.035	1.26 ± 0.14	1.18 ± 0.072	1.24 ± 0.093	1.266 ± 0.0086	1.25 ± 0.05	1.48 ± 0.057
XPOT (UniProt O43592)	1 ± 0.043	1.01 ± 0.071	0.93 ± 0.054	0.938 ± 0.1	0.946 ± 0.053	0.94 ± 0.069	0.875 ± 0.039	0.871 ± 0.045
M0R2Z9 and related entries (UniProt Q8IX01)	1.01 ± 0.021	1.05 ± 0.03	1.12 ± 0.073	1.16 ± 0.074	1.21 ± 0.13	1.18 ± 0.098	1.25 ± 0.12	1.25 ± 0.13
